In patent publication US7312054B2, “Methods and reaction mixture reagent for increasing the specificity and fidelity of polymerase reactions” (Biodynamics S.R.L., priority 2002, dated 2007):
At least one structure is not confirmed: it was looked up by name or label, or the drawing left a doubt.

The chains behind the UniProt entries cited, without tags or fusion partners.
UniProt P19821, whole entry: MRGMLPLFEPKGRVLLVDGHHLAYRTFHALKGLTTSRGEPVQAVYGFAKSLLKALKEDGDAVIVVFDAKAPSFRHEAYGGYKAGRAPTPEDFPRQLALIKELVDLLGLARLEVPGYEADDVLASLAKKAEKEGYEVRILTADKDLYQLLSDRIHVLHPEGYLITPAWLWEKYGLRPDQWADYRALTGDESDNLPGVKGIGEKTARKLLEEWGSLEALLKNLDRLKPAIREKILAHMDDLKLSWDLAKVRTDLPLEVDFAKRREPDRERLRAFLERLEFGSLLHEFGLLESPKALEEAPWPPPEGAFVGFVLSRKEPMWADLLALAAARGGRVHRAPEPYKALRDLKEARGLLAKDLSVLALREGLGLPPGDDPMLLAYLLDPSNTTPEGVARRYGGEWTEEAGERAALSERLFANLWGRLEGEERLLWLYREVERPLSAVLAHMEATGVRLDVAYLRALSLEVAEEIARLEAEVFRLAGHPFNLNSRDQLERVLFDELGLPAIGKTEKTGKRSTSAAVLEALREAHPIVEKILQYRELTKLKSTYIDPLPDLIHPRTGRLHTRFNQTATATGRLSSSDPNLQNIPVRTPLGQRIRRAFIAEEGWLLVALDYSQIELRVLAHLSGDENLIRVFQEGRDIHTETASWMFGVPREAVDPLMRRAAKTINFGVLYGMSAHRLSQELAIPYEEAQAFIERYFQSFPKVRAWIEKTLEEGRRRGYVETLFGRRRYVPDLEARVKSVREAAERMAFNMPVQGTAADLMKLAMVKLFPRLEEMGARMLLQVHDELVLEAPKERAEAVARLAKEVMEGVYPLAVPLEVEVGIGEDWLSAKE

Columns and labels:
Assay type in all cases: biochemical
Taq DNA Polymerase [1] = target: T1, Taq DNA Polymerase (Thermus aquaticus, UniProt P19821); assay: Allele-specific PCR of human mtDNA with 3' end matched/mismatched primers, with ethidium bromide in the reaction mixture
T1 construct: purchased Promega Corp

Pfu DNA Polymerase = target: T2, Pfu DNA Polymerase (Pyrococcus furiosus, UniProt P61875); assay: Allele-specific PCR of mtDNA with a proofreading enzyme, with ethidium bromide; conditions: ethidium bromide 4.5 to 5.5 μg/ml; 299 bp mtDNA region carrying C at 16311; FIG. 8
T2 construct: purchased Promega Corp
T2 sequence (P61875 1-775): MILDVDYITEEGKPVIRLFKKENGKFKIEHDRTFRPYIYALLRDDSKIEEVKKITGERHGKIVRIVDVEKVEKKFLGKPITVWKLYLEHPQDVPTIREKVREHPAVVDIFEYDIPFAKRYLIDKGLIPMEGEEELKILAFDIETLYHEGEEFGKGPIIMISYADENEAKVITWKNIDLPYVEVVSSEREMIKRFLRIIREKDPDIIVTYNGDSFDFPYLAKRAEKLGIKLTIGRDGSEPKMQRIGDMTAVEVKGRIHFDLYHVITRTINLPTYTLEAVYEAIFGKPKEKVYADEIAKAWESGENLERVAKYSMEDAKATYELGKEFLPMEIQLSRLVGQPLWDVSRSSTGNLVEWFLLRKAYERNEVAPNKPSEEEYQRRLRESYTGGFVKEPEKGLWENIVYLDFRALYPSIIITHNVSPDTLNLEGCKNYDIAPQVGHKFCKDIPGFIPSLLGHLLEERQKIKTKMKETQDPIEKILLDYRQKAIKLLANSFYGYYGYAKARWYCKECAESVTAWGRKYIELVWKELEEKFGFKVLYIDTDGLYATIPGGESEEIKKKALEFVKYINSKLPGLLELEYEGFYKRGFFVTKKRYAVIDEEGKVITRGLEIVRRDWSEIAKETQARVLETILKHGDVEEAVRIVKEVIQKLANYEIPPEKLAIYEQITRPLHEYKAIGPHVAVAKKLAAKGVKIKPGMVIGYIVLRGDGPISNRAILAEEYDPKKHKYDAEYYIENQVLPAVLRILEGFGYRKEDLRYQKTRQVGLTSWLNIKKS

Taq DNA Polymerase [2] = target: T1, Taq DNA Polymerase; assay: Allele-specific PCR of genomic DNA (exon 8 of CYBB gene, C to T at position 1785), with ethidium bromide; conditions: ethidium bromide 5 μg/ml; FIG. 9
Taq DNA Polymerase [3] = target: T1, Taq DNA Polymerase; assay: lacI PCR mutation (fidelity) assay on p3ZIQ24 template, blue/white colony count in E. coli JM109
[4] = ethidium bromide 4.5 to 6.0 μg/ml, 299 bp mtDNA region carrying C at position 16311, FIG. 1

For `CC[n+]1c(-c2ccccc2)c2cc(N)ccc2c2ccc(N)cc21` [ethidium bromide], the “non-specific amplification of mismatch primers in other mtDNA regions” value (Taq DNA Polymerase [1]; 244 bp fragment of region I (16256 primers) and 219 bp fragment of region II (143 primers), FIG. 3 and 4) was “abolished in all cases”, the “effect of adding ethidium bromide before, in between or after the primer and the template” value (Taq DNA Polymerase [1]; ethidium bromide 5.0 μg/ml, FIG. 7) was “No differences were observed” and the “effect on amplification with the totally complementary primer (16311G)” value (Taq DNA Polymerase [1]; [4]) was “little effect”. For the same compound, the “non-specific amplification of 3' end mismatch primers (16311A, 16311C, 16311T)” value (Taq DNA Polymerase [1]; [4]) was “dramatically diminished”, the “specificity of amplification with Pfu DNA Polymerase” value (Pfu DNA Polymerase) was “good specific results” and the “allele-specific amplification on genomic DNA (CYBB exon 8, patient and control)” value (Taq DNA Polymerase [2]) was “distinct amplification band only with their corresponding homologous primers”. The error rate (Taq DNA Polymerase [3]; 2 pg/ml concentration of ethidium bromide) was 1.3×10^−5, the “Product” value (Taq DNA Polymerase [3]; EtBr 2 μg/ml, 2,482 bp PCR product from 0.1 ng p3ZIQ24, gel densitometry) was 50 ng and the “% lacI-” value (Taq DNA Polymerase [3]; EtBr 2 μg/ml, TOTAL of the three reactions) was 4.09%. For the same compound, the “F (error rate)” value (Taq DNA Polymerase [3]; EtBr 2 μg/ml, TOTAL of the three reactions, f=−lnF/d×b) was 1.3 × 10^−5, the “increase of the fidelity of Taq DNA Polymerase” value (Taq DNA Polymerase [3]; ethidium bromide 2 μg/ml) was “almost two fold” and the “yield of the 2,482 bp PCR product” value (Taq DNA Polymerase [3]; in the presence of the intercalating agent, FIG. 10-b) was “somewhat lower”. For the same compound, the “reduction of the error rate with ethidium bromide” value (Taq DNA Polymerase [3]; versus without treatment) was “almost a half”.
